Data as given in PubChem BioAssay AID1671195 (Yale University, 2021).

Assay: 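Genes whose knockdown alters LDL uptake in liver cancer cells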 (primary screen)
Cells: human Huh7 hepatoma cells
Knock-down reagent: siRNA pool against human genes, 18 nM
Timing: about 2 to 2.5 days of knockdown, then 8 h LDL uptake
Challenge: DiI-labelled LDL at 30 µg/ml for 8 h, in lipoprotein-deficient serum medium
Read-out: 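Per-cell DiI-LDL intensity by automated imaging; well means scaled to the plate median and given as a robust z-score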
Direction: robust z-score: higher = more LDL uptake after knockdown
Hit rule: 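Active when two or more replicates show a robust z-score above 2 or below -2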
Here is one part, drawn at random, of about 22,000 reagents tested. Over the whole deposit, about 1,510 (6.9%) got an active call. 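Active includes knockdowns raising or lowering LDL uptake; positive z-scores mean more uptake, negative mean less.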 Unmarked entries are inactive.

| gene | robust z-score, replicate 1 | robust z-score, replicate 2 | robust z-score, replicate 3 |
| --- | --- | --- | --- |
| ALOXE3 (arachidonate epidermal lipoxygenase 3) | -0.442 | 0.00345 | -0.876 |
| RHEB (Ras homolog, mTORC1 binding) | -2.21 | -0.0371 | -1.41 |
| IFNWP2 (interferon omega 1 pseudogene 2) | 1.1 | 0.0834 | 0.666 |
| LOC441062 (retired record) | 0.927 | 1.83 | 1.18 |
| MYH6 (myosin heavy chain 6) | 2.23 (active) | 1.11 | 2.97 |
| SLC25A39 | -0.48 | 0.634 | 0.157 |
| VAMP2 (vesicle associated membrane protein 2) | -0.0344 | -0.00052 | -0.142 |
| CYP26A1 (cytochrome P450 family 26 subfamily A member 1) | -0.167 | -0.629 | -0.442 |
| RGS2 (regulator of G protein signaling 2) | -0.23 | 0.393 | -2.42 |
| PRB4 (proline rich protein BstNI subfamily 4) | 1.43 | 0.729 | 1.54 |
| TULP1 (TUB like protein 1) | 1.13 | -1 | -0.641 |
| ARSA (arylsulfatase A) | 0.709 | 0.132 | 0.941 |
| FAM89B (family with sequence similarity 89 member B) | -1.03 | 0.504 | -1.58 |
| GLP2R (glucagon like peptide 2 receptor) | 0.219 | 0.516 | 0.248 |
| BUD13 (BUD13 spliceosome associated protein) | -1.25 | -1.33 | -1.58 |
| TEDC2 (tubulin epsilon and delta complex 2) | -1.3 | -1.7 | -1.56 |
| PTMS (parathymosin) | -0.813 | -0.765 | -0.809 |
| ETV5 (ETS variant transcription factor 5) | 2.99 (active) | 2.42 | 2.9 |
| GPATCH2 (G-patch domain containing 2) | -0.432 | -0.642 | 1.15 |
| GAS1 (growth arrest specific 1) | 0.0534 | -0.0908 | -0.419 |
| EEF1DP2 | 1.86 | 1.55 | 1.17 |
| ATP2A3 | 1.21 | 0.837 | 0.312 |
| CAV3 (caveolin 3) | -0.0444 | -0.121 | -0.59 |
| BICDL2 (BICD family like cargo adaptor 2) | 2.02 (active) | 2.76 | 1.7 |
| PGLYRP1 (peptidoglycan recognition protein 1) | 0.402 | -0.0779 | 0.22 |
| CHGB (chromogranin B) | -1.05 | -1.02 | -0.518 |
| BMS1P21 (BMS1 pseudogene 21) | 0.62 | 0.178 | 0.226 |
| FZD4 (frizzled class receptor 4) | -0.529 | -0.269 | -0.438 |
| TCTN1 (tectonic family member 1) | 1.68 | 1.11 | 1.08 |
| SERPINI2 (serpin family I member 2) | 0.778 | 2.01 | 0.912 |
| XK | -0.124 | -1.42 | -0.278 |
| PLA2G12B (phospholipase A2 group XIIB) | -1.13 | -1.54 | -1.85 |
| GNG7 (G protein subunit gamma 7) | 0.963 | 1.2 | 1.45 |
| PRPF39 (pre-mRNA processing factor 39) | -0.188 | 1.4 | -1.87 |
| UBXN2A (UBX domain protein 2A) | 1.19 | 0.808 | 0.829 |
| LOC392208 (retired record) | -0.929 | -1.4 | -1.43 |
| RPLP2 (ribosomal protein lateral stalk subunit P2) | -1.87 (active) | -1.95 | -2.72 |
| SCN5A (sodium voltage-gated channel alpha subunit 5) | -0.573 | -0.59 | -0.407 |
| KHDC4 (KH domain containing 4, pre-mRNA splicing factor) | -0.942 | -0.81 | -0.761 |
| CDH5 (cadherin 5) | -1.16 | -0.346 | 0.816 |
| LOC390009 (retired record) | 1.47 | 0.244 | 0.889 |
| MUSK (muscle associated receptor tyrosine kinase) | -0.211 | -0.738 | -0.597 |
| AKR1A1 (aldo-keto reductase family 1 member A1) | 0.232 | 0.55 | 0.141 |
| SSH2 (slingshot protein phosphatase 2) | -0.537 | -0.879 | -0.356 |
| SIGMAR1 (sigma receptor chaperone 1) | -0.019 | 0.272 | -0.0518 |
| ACTRT2 (actin related protein T2) | -1.71 | -0.857 | -1.3 |
| ARFIP1 (ARF interacting protein 1) | -0.371 | 0.728 | -1.53 |
| COQ9 (coenzyme Q9) | 2.48 (active) | 3.93 | 3.1 |
| ZNF542P (zinc finger protein 542, pseudogene) | 0.589 | 0.358 | 0.668 |
| OR8I2 (olfactory receptor family 8 subfamily I member 2) | -1.83 | -1.45 | -1.83 |
| FAM66E (family with sequence similarity 66 member E) | 0.309 | 0.393 | 0.137 |
| RFTN1 (raftlin, lipid raft linker 1) | -0.209 | 1.58 | -0.64 |
| NDUFAB1 (NADH:ubiquinone oxidoreductase subunit AB1) | 0.372 | -0.191 | 0.27 |
| LOC253662 (retired record) | -0.507 | -0.516 | -0.359 |

6 of these entries, reformatted.
{"gene":"RHEB (Ras homolog, mTORC1 binding)","robust z-score, replicate 1":-2.21,"robust z-score, replicate 2":-0.0371,"robust z-score, replicate 3":-1.41}
{"gene":"IFNWP2 (interferon omega 1 pseudogene 2)","robust z-score, replicate 1":1.1,"robust z-score, replicate 2":0.0834,"robust z-score, replicate 3":0.666}
{"gene":"LOC441062 (retired record)","robust z-score, replicate 1":0.927,"robust z-score, replicate 2":1.83,"robust z-score, replicate 3":1.18}
{"gene":"MYH6 (myosin heavy chain 6)","robust z-score, replicate 1":"2.23 (active)","robust z-score, replicate 2":1.11,"robust z-score, replicate 3":2.97}
{"gene":"SLC25A39","robust z-score, replicate 1":-0.48,"robust z-score, replicate 2":0.634,"robust z-score, replicate 3":0.157}
{"gene":"VAMP2 (vesicle associated membrane protein 2)","robust z-score, replicate 1":-0.0344,"robust z-score, replicate 2":-0.00052,"robust z-score, replicate 3":-0.142}

Further results:
| gene | robust z-score, replicate 1 | robust z-score, replicate 2 | robust z-score, replicate 3 |
| --- | --- | --- | --- |
| R3HDML (R3H domain containing like) | -1.33 | -1.8 | -1.11 |
| QARS1 (glutaminyl-tRNA synthetase 1) | -0.476 | 0.96 | 1.25 |
| TADA1 (transcriptional adaptor 1) | 0.315 | 0.71 | 0.613 |
| C20orf66 | -1.05 | -1.34 | -1.19 |
| GNAO1 (G protein subunit alpha o1) | -0.472 | -1.2 | -0.655 |
| CYP27C1 (cytochrome P450 family 27 subfamily C member 1) | 2.05 (active) | 1.79 | 2.52 |
| CDK2 (cyclin dependent kinase 2) | -0.537 | -0.228 | -0.296 |
| CLMB (calcimembrin) | -1.05 | -0.735 | -1.47 |
| TMPRSS11A (transmembrane serine protease 11A) | 3.43 (active) | 2.81 | 3.67 |
| KCNIP2 (potassium voltage-gated channel interacting protein 2) | 0.43 | -0.408 | 0.0344 |
| GTF2H5 (general transcription factor IIH subunit 5) | -1.46 | -0.827 | -1.03 |
| TCEA2 (transcription elongation factor A2) | -1.39 (active) | -1.99 | -2.29 |
| DDX51 (DEAD-box helicase 51) | 1.03 | 1.15 | 0.886 |
| PNLDC1 (PARN like ribonuclease domain containing exonuclease 1) | -1.47 | -1.91 | -1.74 |
| LOC401545 (retired record) | 1.59 | 1.09 | 2.03 |
| TFE3 (transcription factor binding to IGHM enhancer 3) | 0.8 | 0.76 | 0.694 |
| PDPN (podoplanin) | -0.761 | -1.29 | 0.199 |
| LAMC3 (laminin subunit gamma 3) | -1.84 | -1.94 | -1.45 |
| PPIE (peptidylprolyl isomerase E) | -0.469 | -0.0373 | -0.835 |
| XIRP2 (xin actin binding repeat containing 2) | -0.731 | -1.04 | -0.0202 |
| ZNF85 (zinc finger protein 85) | -2.71 | -1.78 | -1.27 |
| PPAN (peter pan homolog) | -0.0561 | -1.11 | -0.379 |
| LOC391707 (chromatin accessibility complex subunit 1 pseudogene) | 0.894 | 0.123 | -0.0404 |
| SAFB2 (scaffold attachment factor B2) | -0.509 | -0.405 | -0.132 |
| OR10G8 (olfactory receptor family 10 subfamily G member 8) | -0.911 | -1.1 | -0.879 |
| CCDC68 (coiled-coil domain containing 68) | -0.421 | -0.684 | -0.802 |
| SPOCK1 | -0.544 | 0.473 | -0.448 |
| LOC391784 (retired record) | -0.958 | -1.05 | -0.593 |
| SIRT1 (sirtuin 1) | -1.87 | -1.19 | -1.81 |
| TIGIT (T cell immunoreceptor with Ig and ITIM domains) | 0.629 | 0.737 | 0.795 |
| MTBP (MDM2 binding protein) | -0.474 | -0.22 | -1.17 |
| LOC442375 (retired record) | -0.88 | -0.0786 | -0.134 |
| PHLPP1 (PH domain and leucine rich repeat protein phosphatase 1) | 1.11 | 1.12 | 0.266 |
